Test results reported in article PMC7326067, “The Critical Role of Tryptophan in the Antimicrobial Activity and Cell Toxicity of the Duck Antimicrobial Peptide DCATH” (Frontiers in Microbiology, 2020).

Tested on: bacterial cells over hRBCs
Conditions: TI = HC10/GM (ratio of MHC to GM)

QLVPLAIKIYRAWKRR-NH2 [dCATH(5–20)]
TI (therapeutic index): 39.02

KRFWQLVPLAIKIYRA-NH2 [dCATH(1–16)]
TI (therapeutic index): 52.46

Where no end group is shown, it is not given here.
